The other results are listed elsewhere or left out. The main result of the screen is listed elsewhere. These columns were measured beside it and carry no call. Most of these compounds were active or inconclusive in the main read-out, so they are no random draw. The note in brackets gives the kind of curve behind each potency; many fits are weak.
Test: qHTS Assay for Modulators of Lamin A Splicing
Settings: HeLa LMNA splicing GFP/RFP minigene ratio, 48 h
How it was run: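 S3 HeLa cells stably expressing lamin A-EGFP splicing minigene plus DsRed2, 600 cells/well, 48 h compound exposure at 37C. Laser-scanning cytometry; analysed as GFP (500-530 nm)/RFP (575-640 nm) total intensity ratio; 0.5% DMSO vehicle.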

[1] = measured here: GFP splicing reporter channel
[2] = measured here: RFP viability control channel

O=C(COc1ccccc1Br)NC1CCCC1
AC50 [1]: 14.1 µM [rising, partial curve, poor fit] | AC50 [2]: 12.6 µM [rising, partial curve]

O=C1C(Cl)=C(N2CCCCC2)C(=O)N1Cc1ccccc1
AC50 [2]: 31.6 µM [rising, single point]

CCOc1cc(CNc2ccc(CNc3ncn[nH]3)cc2)ccc1OCc1ccccc1
AC50 [2]: 35.5 µM [rising, single point]

Cc1[nH]oc(=O)c1N=Nc1ccccc1
AC50 [1]: 17.8 µM [rising, single point] | AC50 [2]: 14.1 µM [rising, single point]

COCCCNC(=O)c1ccc2nc(Cc3ccc(OC)cc3)oc2c1
AC50 [1]: 1 µM [rising, full curve] | AC50 [2]: 0.631 µM [rising, full curve, poor fit]

Cc1c(/C=N/NC(N)=O)c2ccccn2c1C(=O)c1ccc(F)cc1
AC50 [2]: 14.1 µM [rising, single point]

Cc1cc(C)c2c(c1)-c1c(ssc1=S)C(C)(C)N2C(=O)CSc1nncn1C
AC50 [1]: 17.8 µM [rising, single point] | AC50 [2]: 35.5 µM [rising, single point]

CCOc1ccc2c(c1)-c1c(ssc1=S)C(C)(C)N2C(=O)c1ccco1
AC50 [1]: 35.5 µM [rising, single point] | AC50 [2]: 15.8 µM [rising, partial curve]

CC(C)(C)OC(=O)N/N=C\c1ccc(OC(=O)c2ccco2)cc1
AC50 [1]: 0.794 µM [rising, full curve, poor fit] | AC50 [2]: 0.0224 µM [rising, full curve, poor fit]

Cc1ccccc1Cn1nc(C)c(NC(=O)c2noc3c2CC(C(C)(C)C)CC3)c1C (stereo not given)
AC50 [1]: 35.5 µM [falling, single point] | AC50 [2]: 14.1 µM [falling, partial curve]

O=C1Cc2c([nH]c3ccc(Br)cc23)-c2ccccc2N1
AC50 [1]: 0.794 µM [falling, full curve] | AC50 [2]: 5.62 µM [falling, full curve, poor fit]

Cc1ncoc1C(=O)N1CCCC(C(=O)c2ccc(-c3ccccc3)cc2)C1 (stereo not given)
AC50 [1]: 15.8 µM [falling, partial curve, poor fit] | AC50 [2]: 11.2 µM [falling, partial curve, poor fit]

COc1ccccc1-c1nnc2sc(C3CCCCC3)nn12
AC50 [2]: 35.5 µM [rising, single point]

O=C(Nc1ccc(CN2CCOCC2)cc1)c1cc2ccccn2n1
AC50 [2]: 22.4 µM [rising, partial curve, poor fit]

Cc1cc(C)cc(N=c2c([N+](=O)[O-])nn(-c3ccc4c(c3)OCCO4)n2O)c1
AC50 [1]: 0.158 µM [rising, full curve, poor fit] | AC50 [2]: 5.62 µM [rising, partial curve, poor fit]

Cc1ccc(OCC(=O)Nc2ccccc2C(=O)OCc2cc(=O)n3nc(C4CC4)sc3n2)cc1
AC50 [1]: 2.51 µM [falling, partial curve]

CCOc1ccc(-c2nc[nH]c2[N+](=O)[O-])cc1
AC50 [1]: 1 µM [falling, partial curve, poor fit] | AC50 [2]: 0.112 µM [falling, full curve, poor fit]

CCOc1ccc(NC(=O)CNC(=O)c2ccc(OC)c(OC)c2)cc1
AC50 [1]: 31.6 µM [rising, single point]

CCC(CC)NC(=O)c1oc2ccccc2c1COc1ccccc1
AC50 [2]: 11.2 µM [rising, single point]

COc1ccc(-n2cc(CNCCc3ncc(C)[nH]3)c(-c3ccccc3Cl)n2)cc1
AC50 [1]: 35.5 µM [falling, single point]

O=C(CSc1cccc[n+]1[O-])c1cc(Cl)ccc1Cl
AC50 [1]: 7.94 µM [falling, partial curve] | AC50 [2]: 35.5 µM [falling, single point]

CCOC(=O)c1cccc(NC(=O)C2(S(=O)(=O)c3ccc(Cl)cc3)CC2)c1
AC50 [2]: 10 µM [rising, partial curve]

O=C(Nc1ccccc1)C(c1ccccc1)C1CCCC1 (stereo not given)
AC50 [2]: 28.2 µM [rising, single point]

O=C(Nc1ccc(C(=O)OCc2cc(=O)n3c4c(sc3n2)CCCC4)cc1)c1ccccc1
AC50 [1]: 0.282 µM [rising, full curve]

CN(Cc1cccc(-n2cccn2)c1)C(=O)CCc1nnc(C2CCCCC2)o1
AC50 [2]: 0.562 µM [falling, full curve, poor fit]

C=CCNc1nc(-c2ccc([N+](=O)[O-])cc2)cs1
AC50 [1]: 11.2 µM [rising, single point] | AC50 [2]: 17.8 µM [rising, partial curve]

O=S(=O)(/C=C/c1ccccc1)Nc1cccc(S(=O)(=O)NC2=NCCC2)c1
AC50 [1]: 3.16 µM [falling, full curve]

O=C(Cn1cnc2c(oc3ccccc32)c1=O)Nc1ccccc1C(F)(F)F
AC50 [2]: 35.5 µM [rising, single point]

Cc1ccnc(NS(=O)(=O)c2ccc(C(C)(C)C)cc2)c1
AC50 [1]: 0.112 µM [rising, single point] | AC50 [2]: 0.1 µM [rising, single point]

O=C1c2cccc(OCC(=O)N3CCCc4ccccc43)c2CCN1Cc1ccc(F)cc1
AC50 [2]: 22.4 µM [rising, partial curve, poor fit]

COC(=O)c1cc(CSc2nc3ccccc3[nH]2)oc1C
AC50 [2]: 28.2 µM [rising, single point]

O=C(NCc1cccc(Cl)c1)c1cc2ccc3cccnc3c2[nH]1
AC50 [2]: 39.8 µM [falling, partial curve, poor fit]

N#Cc1cc(C(=O)c2cc(Br)ccc2O)cn(C2CC2)c1=O
AC50 [1]: 15.8 µM [rising, single point] | AC50 [2]: 14.1 µM [rising, single point]

Cn1c(CNC(=O)OC(C)(C)C)n[nH]c1=S
AC50 [2]: 0.00562 µM [falling, full curve, poor fit]

COc1cccc(NC(=O)Nc2ccc(C(C)(C)C)cc2)c1
AC50 [2]: 35.5 µM [rising, single point]

Source: PubChem BioAssay AID1487 (National Center for Advancing Translational Sciences (NCATS), 2009)
